The target in the assay is epidermal growth factor receptor (human (endogenous in T24)) (UniProt P00533). The assay is described as follows: co-IP; T24 cells starved for 12 h and then treated with proguanil; lysates immunoprecipitated with EGFR antibody (protein A/G, overnight at 4 °C); immunoprecipitates tested by Western blot.

The chains behind the UniProt entries cited, without tags or fusion partners.
UniProt Q03135: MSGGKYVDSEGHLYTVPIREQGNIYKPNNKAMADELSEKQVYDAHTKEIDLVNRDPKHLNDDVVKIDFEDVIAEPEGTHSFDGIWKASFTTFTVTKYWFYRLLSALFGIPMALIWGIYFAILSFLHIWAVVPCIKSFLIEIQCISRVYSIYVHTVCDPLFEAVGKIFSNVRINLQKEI

Results are given in words; binding and its absence hold for the method and conditions named. In cells and extracts the contact can be indirect. Some results given as binding are weak or reduced against the parent protein; the word gives no strength.

Turning to Caveolin-1 (from UniProt Q03135 1-178), the binding entry was “binds”.

Source of the values: publication PMC9132982, “Inhibitory role of proguanil on the growth of bladder cancer via enhancing EGFR degradation and inhibiting its downstream signaling pathway to induce autophagy” (Cell Death & Disease, 2022).
